Values quoted from earlier work, collected in patent US20090023784A1, “USE OF DEFERIPRONE AND METHODS TO TREAT AND/OR PREVENT FRIEDREICH ATAXIA RESULTING FROM INTRACELLULAR MISHANDLING OF IRON” (priority 2006, published 2009).
For at least one compound, name, drawing or mass did not settle the structure.

System: intracellular iron pools of macrophages, hepatocytes, and cardiomyocyte cell lines
Settings: living cells, fluorescence probes; cited from earlier work

Structure (SMILES): O=C(O)c1ccc(-n2nc(-c3ccccc3O)nc2-c2ccccc2O)cc1 [deferasirox]
- access to intracellular iron pools / chelation: readily enter most cells and efficiently reach the major intracellular sites of iron accumulation
